Test: peptide synthesis
Details: conjugation step

## H-KLWVLPKGGGC-NH2
  conjugation yield: 67%
